Data on one molecule can be found in publication PMC8457831, “Structural basis for diguanylate cyclase activation by its binding partner in Pseudomonas aeruginosa” (eLife, 2021).

In this experiment the target is SiaC (sumo-His tag removed) (Pseudomonas aeruginosa). The experiment is described as follows: SEC-MALS; single proteins: SiaC at 1.5 mg/ml, SiaD at 8 mg/ml, WTC-030S5 column, 20 mM HEPES pH 7.0, 150 mM NaCl, DTT; both purified. (In gel filtration, larger molecules generally elute earlier.)

Results are given in words; binding and its absence hold for the method and conditions named. Where a sequence is shown, tags or fusion partners need not be part of it.

B1: SiaC (sumo-His tag removed) (protein, UniProt A0A072ZHB4 1-126)
chain: MSDLHIPGTQSTPAIQGDWQAGRLSMQGDSYPENSYELFGQVIDWVERFLADGQRPLELDLRLLYLNTSSIKAMMDILDLLEEAHQGGRPVSLRWHYDRRNERVAELAEEFREDCSFPFAIQAHDE
In the case of B1, the binding result is listed as “no binding (tested: 1.5 mg/ml)”.
